The list shows a part of the results. The main result of the screen is listed elsewhere. These columns were measured beside it and carry no call. Most of these compounds were active or inconclusive in the main read-out, so they are no random draw. Potencies come from curve fits of mixed quality, noted in brackets.
Assay: qHTS Assay for Lipid Storage Modulators in Drosophila S3 Cells;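 as to cell number change: cells counted by Cell Tracker Red CMTPX staining in the red channel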
Conditions: BODIPY lipid droplet fluorescence, 18-24 h; for cell number change: measured here: cell count max response, cells fed with added oleic acid
In short: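 Drosophila S3 cells got compounds at several concentrations plus oleic acid (400 uM solution). Laser-scanning cytometry with 488 nm excitation read lipid droplets at 500-530 nm and cells at 575-640 nm. Percent activity was relative to 20 uM Triacsin C.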

[1] = measured here: cell number channel AC50, cells fed with added oleic acid
[2] = measured here: lipid fluorescence (Fed channel) AC50, cells fed with added oleic acid

COc1ccc(-c2nc(C)ncc2N=Nc2ccccc2)cc1
cell number change: -80.3%
AC50 [1]: 18.4 µM [falling, single point]
AC50 [2]: 14.6 µM [falling, partial curve]

O=C(NCCNCCO)c1c(O)c2cccc3c2n(c1=O)CCC3
cell number change: -4.45%
AC50 [2]: 3.26 µM [falling, full curve]

O=C(COC(=O)c1ccccc1O)NC(=O)NCc1ccccc1
cell number change: -75%
AC50 [1]: 16.4 µM [falling, single point]

C/C=C(\C)CN1CCCC(CO)(Cc2ccccc2)C1 (stereo not drawn)
cell number change: -36.9%
AC50 [1]: 18.4 µM [falling, partial curve]

CC(C)(C)CN1CCNC[C@H]1Cc1ccc(O)cc1
cell number change: -30.2%
AC50 [1]: 29.1 µM [falling, single point]
AC50 [2]: 29.1 µM [falling, single point]

O=S(Cc1ccc(Cl)cc1)CC(O)(c1ccccc1)c1ccccc1 (stereo not drawn)
cell number change: -31.3%
AC50 [1]: 14.6 µM [falling, single point]
AC50 [2]: 20.6 µM [falling, single point]

COc1ccc(S(=O)(=O)N2CCC(C(=O)Nc3nccs3)CC2)cc1
cell number change: 53.5%
AC50 [1]: 29.1 µM [rising, single point]
AC50 [2]: 29.1 µM [rising, single point]

O=C(CSc1ncn(-c2ccccc2)n1)Nc1nc(-c2ccccc2)cs1
cell number change: -17.6%
AC50 [2]: 20.6 µM [falling, single point]

Cn1c2c(c(=O)[nH]c1=O)C(c1ccc(O)cc1)C1=C(N2)c2ccccc2C1=O (stereo not drawn)
cell number change: -32.2%
AC50 [1]: 0.146 µM [falling, full curve, poor fit]
AC50 [2]: 4.61 µM [falling, partial curve, poor fit]

COc1ccc(OCC(=O)Nc2ccc(N3CCN(C(=O)c4ccccc4)CC3)c(Cl)c2)cc1
cell number change: -50%
AC50 [1]: 29.1 µM [falling, single point]

CCC(C)NCCC(=O)Nc1ccc(Cl)c(S(=O)(=O)Nc2ccc(Cl)cc2)c1 (stereo not drawn)
cell number change: 46.5%
AC50 [1]: 16.4 µM [rising, single point]
AC50 [2]: 18.4 µM [rising, single point]

NS(=O)(=O)c1cccc(NS(=O)(=O)c2ccc(/C=C/C(=O)O)cc2)c1
cell number change: -12.2%
AC50 [1]: 6.51 µM [falling, single point]
AC50 [2]: 6.51 µM [falling, single point]

Cn1cc(C(=O)NCc2ccc(F)cc2)c(=O)c2cc(S(=O)(=O)N3CCCCC3)ccc21
AC50 [1]: 0.146 µM [rising, full curve, poor fit]
AC50 [2]: 0.13 µM [rising, full curve, poor fit]

CCN1N=C(c2cc(Cl)sc2Cl)CSC1=O
cell number change: -32.4%
AC50 [1]: 10.3 µM [falling, partial curve]
AC50 [2]: 13 µM [falling, partial curve]

Cc1cccc(OCCCC(=O)Nc2ccc3c(c2)OCO3)c1
cell number change: 6.84%
AC50 [2]: 14.6 µM [rising, partial curve, poor fit]

Cc1cccc(CN2C(=O)/C(=C\c3ccc(C(=O)NCCCN4CCN(C)CC4)cc3)Oc3ccccc32)c1
cell number change: -3.36%

COc1ccccc1CNC(=O)C(CCSC)NC(=O)C1CCC(C)CC1 (stereo not drawn)
cell number change: -7.45%
AC50 [2]: 29.1 µM [rising, single point]

Cc1onc(-c2ccccc2)c1C(=O)Nc1cccc2nsnc12
AC50 [1]: 0.651 µM [rising, single point]
AC50 [2]: 0.291 µM [rising, partial curve, poor fit]

COc1ccccc1NC(=O)NCCN1CCNC1=O
cell number change: -9.29%
AC50 [2]: 0.00461 µM [falling, full curve, poor fit]

O=C(O)c1cccc(S(=O)(=O)Nc2ccccc2Cl)c1
cell number change: -29.8%
AC50 [2]: 0.00517 µM [falling, full curve, poor fit]

CCN(CC(=O)Nc1c(F)cccc1F)C(=O)c1cccc(S(=O)(=O)N2CCc3ccccc3C2)c1
cell number change: 0.116%

CCOc1ccc(-c2nnc(Nc3ccc(OC)c(C(=O)N4CCCCC4)c3)c3ccccc23)cc1
cell number change: 3.75%
AC50 [2]: 0.164 µM [rising, full curve, poor fit]

FC(F)(F)c1nnc2ccc(N3CCOCC3)nn12
cell number change: 13.5%
AC50 [2]: 0.116 µM [rising, full curve, poor fit]

CC1CC(C)CN(S(=O)(=O)c2ccccc2[N+](=O)[O-])C1 (stereo not drawn)
cell number change: -4.13%
AC50 [1]: 0.0058 µM [falling, full curve]
AC50 [2]: 4.11 µM [falling, full curve]

CC(C)c1ccc(C(=O)N/N=C/c2cccc(Cl)c2Cl)cc1
cell number change: 14.4%

CC(C)(C)OC(=O)N1CCC(NC(=O)c2ncn(Cc3ccccc3)c2C(=O)NC2CCN(C(=O)OC(C)(C)C)CC2)CC1
cell number change: -47.8%
AC50 [1]: 20.6 µM [falling, single point]
AC50 [2]: 5.17 µM [falling, full curve]

COc1ccc(CN2CCN(CC3CC3)CC2CCO)c(C)c1C (stereo not drawn)
cell number change: -12.2%
AC50 [2]: 6.51 µM [rising, single point]

Cc1cc(C)nc(SCC(=O)OCC(=O)Nc2ccccc2)n1
cell number change: 1.3%
AC50 [2]: 0.651 µM [falling, partial curve, poor fit]

O=C(c1cc([N+](=O)[O-])ccc1Cl)N1CCN(Cc2ccc3c(c2)OCO3)CC1
cell number change: 14.2%
AC50 [2]: 2.31 µM [rising, partial curve, poor fit]

CCOC(=O)c1cnn(-c2c(Cc3ccccc3)c(C)nc3c(-c4ccccc4)c(C)nn23)c1N
cell number change: 15.7%

CC1CCC2C(=O)N(c3cccc(C(=O)Nc4ccccc4Cl)c3)C(=O)C2C1 (stereo not drawn)
cell number change: -8.91%
AC50 [1]: 0.651 µM [rising, single point]
AC50 [2]: 29.1 µM [falling, single point]

CCCc1nn2c(=O)cc(CSCC(=O)Nc3ccc(OC)cc3)nc2s1
cell number change: -8.36%

COC(=O)C1=C(C)NC(=O)CC1c1cc2c(cc1Br)OCO2 (stereo not drawn)
cell number change: -19.2%

CC(=O)c1c(C)[nH]c(C(=O)NNC(=O)COc2cc(C)cc(C)c2)c1C
AC50 [1]: 0.103 µM [falling, full curve, poor fit]

Cc1cc(C)c2nc(SCC(=O)N3CCCCC3)c(C#N)cc2c1
cell number change: -1.12%
